{"sequences": {"note": "The chains behind the UniProt entries cited, without tags or fusion partners.", "UniProt O15379, whole entry, looked up": "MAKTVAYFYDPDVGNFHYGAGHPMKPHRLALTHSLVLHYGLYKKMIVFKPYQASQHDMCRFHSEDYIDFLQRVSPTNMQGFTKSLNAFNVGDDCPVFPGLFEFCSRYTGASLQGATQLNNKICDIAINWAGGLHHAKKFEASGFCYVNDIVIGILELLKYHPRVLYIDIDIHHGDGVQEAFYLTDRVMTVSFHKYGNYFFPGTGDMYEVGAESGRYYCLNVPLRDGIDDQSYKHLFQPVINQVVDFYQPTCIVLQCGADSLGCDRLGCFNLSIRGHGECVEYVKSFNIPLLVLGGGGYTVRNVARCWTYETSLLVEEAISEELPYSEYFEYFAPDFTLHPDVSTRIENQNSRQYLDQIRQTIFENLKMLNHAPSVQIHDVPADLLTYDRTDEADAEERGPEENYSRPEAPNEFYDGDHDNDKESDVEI"}, "source": "PubChem BioAssay AID2718", "about": "(Broad Institute, 2010)", "note": "The whole screen tested about 320,000 compounds, of which about 480 (0.15%) were called active. The inconclusive results got no clear call from the source; some entries with a clear call stand among them for comparison. Rule as the data show it: active = inhibition above about 26% (passing the limit was not always enough); inconclusive = no clear call, values can overlap the other calls."}
{"biological_target": "Histone deacetylase 3 (Homo sapiens) (UniProt O15379)", "test": "HDAC3 deacetylase inhibitors, primary screen, biochemical, fluorescence, cell-free homogeneous (AID 2718)", "conditions": "recombinant HDAC3, fluorogenic peptide/trypsin coupled, at 8.3 µM, stronger effect = higher value"}
{"smiles": "CCOC(=O)c1csc(NC(=O)c2cccs2)n1", "inhibition": "inconclusive: 15.3%"}
{"smiles": "CCc1c(C)sc(NC(=S)N2CCN(C(=O)C3CCCO3)CC2)c1C(=O)OC", "note": "(stereo unspecified)", "inhibition": "inconclusive: 16.4%"}
{"smiles": "COc1ccc(S(=O)(=O)N2CCC3(CC2)OCCN3S(=O)(=O)c2cccs2)cc1", "inhibition": "inconclusive: 20.1%"}
{"smiles": "Cc1ccc(OC(=O)c2ccc3nc(C)sc3c2)cc1", "inhibition": "inconclusive: 12.5%"}
{"smiles": "O=C(NNC1=NS(=O)(=O)c2ccccc21)c1ccccc1Cl", "inhibition": "inactive: -0.0198%"}
{"smiles": "CC(C)CC(=O)N1CCN(c2ccc(NC(=O)c3ccco3)cc2)CC1", "inhibition": "inconclusive: 18.3%"}
{"smiles": "CC1(c2ccccc2)NC(=O)N(CC(=O)Nc2ccc3c(c2)OCO3)C1=O", "note": "(stereo unspecified)", "inhibition": "inconclusive: 13.4%"}
{"smiles": "CCOc1cccc(/C=C(/C#N)c2nc3ccccc3[nH]2)c1OCC(=O)O", "inhibition": "inconclusive: 16.7%"}
{"smiles": "CCC(C)c1ccc(NC(=O)Nc2cnccn2)cc1", "note": "(stereo unspecified)", "inhibition": "inactive: -4.39%"}
{"smiles": "O=C1/C(=C/c2cccc(F)c2)SC(=S)N1NS(=O)(=O)c1ccccc1", "inhibition": "inactive: 7%"}
{"smiles": "Cc1ccc(C(=O)C[n+]2cccc3cc(C)ccc32)cc1", "inhibition": "inconclusive: 22.3%"}
{"smiles": "CCOc1ccc(C(=O)OCn2nnc3ccccc3c2=O)cc1OC", "inhibition": "inconclusive: 17.3%"}
{"smiles": "Cc1ccc2cc(CN(Cc3ccco3)C(=O)c3ccco3)c3nnnn3c2c1", "inhibition": "inconclusive: 21.5%"}
{"smiles": "C[N+](C)(C)CCN1C(=O)CSC1=O", "inhibition": "inconclusive: 15.8%"}
{"smiles": "Cc1ccc(NC(=O)CSc2nnc(CN3CCOCC3)n2C)cc1C", "inhibition": "inactive: -14.3%"}
{"smiles": "COc1cccc(CN2CCN(C(=O)c3cccs3)CC2)c1OC", "inhibition": "inactive: 6.63%"}
{"smiles": "Cc1ccc(CSc2nc3ccncc3n2CC(=O)Nc2cc(C)cc(C)c2)cc1", "inhibition": "inconclusive: 14.9%"}
{"smiles": "CCOC(=O)CC(=O)CSc1nc2ccc(OC)cc2cc1C", "inhibition": "inactive: 4.89%"}
{"smiles": "COc1ccccc1NS(=O)(=O)c1cc(NC(=O)CNC(=O)c2ccccc2)ccc1C", "inhibition": "inactive: -13.1%"}
{"smiles": "Cc1cccc(C)c1Nc1nnc(SCC(=O)NCc2cccs2)s1", "inhibition": "inconclusive: 17.7%"}
{"smiles": "O=C(COc1ncnc2ccccc12)Nc1ccc(Cl)c([N+](=O)[O-])c1", "inhibition": "inactive: -0.564%"}
{"smiles": "Cc1sc2ncnc(SCC(=O)NC(=O)c3cccn3C)c2c1C", "inhibition": "inactive: -6.82%"}
{"smiles": "CC(CN(C)Cc1ccccc1)OC(=O)c1ccc(F)cc1", "note": "(stereo unspecified)", "inhibition": "inconclusive: 15.2%"}
{"smiles": "O=C(c1ccccc1)n1nc(-c2ccccc2)nc1NCc1ccco1", "inhibition": "active: 38%"}
{"smiles": "C#CCNC(=O)C1=C[C@@H](c2coc3ccccc3c2=O)C[C@@H](OCc2ccc(CO)cc2)O1", "inhibition": "active: 35.5%"}
{"smiles": "Cc1ccc2sc(N(CCCN(C)C)C(=O)CCS(=O)(=O)c3ccccc3)nc2c1C", "inhibition": "inactive: -5.39%"}
{"smiles": "COc1ccc(NC(=S)NC(C)Cc2cccs2)cc1", "note": "(stereo unspecified)", "inhibition": "inconclusive: 10.8%"}
{"smiles": "COc1ccc2c3n([n+]([O-])c2c1)CCN=C3c1cc(Cl)c(N)c(Cl)c1", "inhibition": "inconclusive: 16.5%"}
{"smiles": "Cc1ccc(S(=O)(=O)N2CCOCC2)cc1C(=O)O", "inhibition": "inactive: 0.494%"}
{"smiles": "Cc1cccc(C(=O)OCC(=O)NC23CC4CC(CC(C4)C2)C3)c1O", "inhibition": "inconclusive: 14.1%"}
{"smiles": "O=c1c(Cl)c(N2CCNCC2)cnn1C12CC3CC(CC(C3)C1)C2", "inhibition": "inconclusive: 10.1%"}
{"smiles": "Cn1c(NCc2ccccc2O)nc2ccccc21", "inhibition": "inactive: -0.361%"}
{"smiles": "O=C(Nc1ncccc1O)c1ccc(OCC2CCCO2)cc1", "note": "(stereo unspecified)", "inhibition": "active: 68.5%"}
{"smiles": "COc1ccc(C(=O)Cn2cnc3ccccc3c2=O)c(OC)c1", "inhibition": "inactive: -8.13%"}
{"smiles": "S=c1nc(-c2ccccc2)[nH]n1-c1ccccc1", "inhibition": "inconclusive: 25.5%"}
{"smiles": "Cc1onc(-c2ccccc2)c1C(=O)c1c[nH]c(C(=O)NCc2ccccn2)c1", "inhibition": "inactive: -0.913%"}
{"smiles": "Cc1cccc(NC(=S)NC2CCSc3ccccc32)c1", "note": "(stereo unspecified)", "inhibition": "inactive: 0.657%"}
{"smiles": "O=C(CSc1nnc(-c2ccco2)o1)N1CCOCC1", "inhibition": "inconclusive: 14.2%"}
{"smiles": "Cc1ccc(-c2csc(NC(=O)CSC3=NCCS3)n2)cc1", "inhibition": "inconclusive: 19.6%"}
{"smiles": "O=C(O)c1ccccc1SCC(=O)N1CCOCC1", "inhibition": "inconclusive: 13.6%"}
{"smiles": "Cn1c(=O)[nH]c(=O)c2[nH]c(CN3CCN(Cc4ccccc4)CC3)nc21", "inhibition": "inconclusive: 16.2%"}
{"smiles": "COc1ccc(Cc2cc(NCc3ccccc3)c3ncn(C(C)C)c3c2)cc1", "inhibition": "inconclusive: 21.8%"}
{"smiles": "COc1ccc(NC(=O)c2cc(S(=O)(=O)N(C)C)ccc2N2CCCC2)cc1Cl", "inhibition": "inconclusive: 30.1%"}
{"smiles": "Cc1ccc(C(=O)C(OC(=O)CN2C(=O)c3ccccc3C2=O)c2ccccc2)cc1", "note": "(stereo unspecified)", "inhibition": "inconclusive: 17.8%"}
{"smiles": "O=Nc1ccc(O)c2ncccc12", "inhibition": "inconclusive: 33%"}
{"smiles": "COc1ccc2nc(N/C(N)=N/C(=S)Nc3ccccc3)nc(C)c2c1", "inhibition": "inactive: -2.81%"}
{"smiles": "OCCC1CN(Cc2ccc3nsnc3c2)CCN1CCc1ccccc1", "note": "(stereo unspecified)", "inhibition": "inconclusive: 19.6%"}
{"smiles": "COCCNC(=O)CN(C(=O)Cn1nnc2ccccc21)c1cccc(C)c1C", "inhibition": "inconclusive: 36.1%"}
{"smiles": "CC(=O)CCc1c(C)nc2ccc(C(=O)O)cc2c1Cl", "inhibition": "inactive: -3.16%"}
{"smiles": "N=c1n(CCN2CCCCC2)c2ccccc2n1CC(O)c1cccc(Br)c1", "note": "(stereo unspecified)", "inhibition": "inactive: 2.66%"}
{"smiles": "Cc1ccc(S(=O)(=O)NN/C(=N/S(=O)(=O)c2ccccc2)c2ccccc2)cc1", "inhibition": "inconclusive: 13.9%"}
{"smiles": "CCCN(CCC)CCCNC(=S)Nc1ccc2nc3n(c(=O)c2c1)CCCCC3", "inhibition": "inactive: 3.31%"}
{"smiles": "CC1Cc2nc(SCC(=O)N3CCc4ccccc43)n(C)c(=O)c2S1", "note": "(stereo unspecified)", "inhibition": "inconclusive: 18.4%"}
{"smiles": "COc1ccccc1NC(=O)N1CCC(c2nc3cc(C)c(C)cc3[nH]2)CC1", "inhibition": "inactive: -1.82%"}
{"smiles": "COC(=O)[C@H](Cc1ccccc1)NC(=O)Cn1cnc2c(OCc3ccccc3)ncnc21", "inhibition": "inactive: 7.14%"}
{"smiles": "COc1cccc(NC(=O)COC(=O)c2c(NC(C)=O)sc(C)c2C)c1", "inhibition": "inactive: 0.38%"}
{"smiles": "CCCCN(CCCC)C(=O)c1cc(Cl)ccc1[N+](=O)[O-]", "inhibition": "inactive: -4.04%"}
{"smiles": "O=C(CN(Cc1ccccc1)C1=NCCS1)c1ccc(Cl)cc1", "inhibition": "inconclusive: 28%"}
{"smiles": "O=C(Oc1ccc(=O)n(-c2ccccc2)n1)c1ccc(F)cc1", "inhibition": "inconclusive: 63.4%"}
{"smiles": "COc1ccc(S(=O)(=O)N2CCCC2)c(C)c1C", "inhibition": "inconclusive: 22.6%"}
{"smiles": "Cc1ccc(NS(=O)(=O)c2c(C)[nH]c(C)c2C(=O)N2CCCC2)cc1", "inhibition": "inconclusive: 20.8%"}
{"smiles": "COc1ccc(C(=O)N2CCSC2=S)cc1OC", "inhibition": "inconclusive: 37%"}
{"smiles": "CC1(C)C(=O)C2(CCCCC2)C(=O)OC1c1cccn1-c1ccc([N+](=O)[O-])cc1", "note": "(stereo unspecified)", "inhibition": "inconclusive: 14.9%"}
{"smiles": "COc1cccc2c(=O)c3c(cnn3C)n(C)c12", "inhibition": "inactive: -106%"}
{"smiles": "COc1ccccc1NC(=O)c1cc2c(cc1Cl)N1CCCCCC1=NS2(=O)=O", "inhibition": "inactive: -5.25%"}
{"smiles": "COc1cc(-c2noc(C3CCCN(C(=O)c4ccccc4)C3)n2)cc(OC)c1OC", "note": "(stereo unspecified)", "inhibition": "inconclusive: 25.6%"}
{"smiles": "O=S(=O)(Nc1ccc(N2CCCCC2)cc1)c1ccccc1F", "inhibition": "inactive: -0.568%"}
{"smiles": "COc1ccc(/C=N/NC(=O)CCn2c3ccccc3c3ccccc32)cc1O", "inhibition": "inactive: 5.7%"}
{"smiles": "Cc1ccccc1-c1cc(C(=O)NCc2ccc(OC(F)(F)F)cc2)n(CC2CC(c3cccnc3)=NO2)n1", "note": "(stereo unspecified)", "inhibition": "inconclusive: 18.2%"}
{"smiles": "Cc1c(NS(=O)(=O)c2cccc(C(=O)N3CCCC3)c2)c(=O)n(-c2ccccc2)n1C", "inhibition": "inconclusive: 21.8%"}
{"smiles": "COCCOC1CCN(C(=O)C2CCC(=O)N(CCc3cccc(F)c3)C2)CC1", "note": "(stereo unspecified)", "inhibition": "inconclusive: 13.8%"}
{"smiles": "Cc1ccc(S(=O)(=O)CCSc2nc(C)cc(C(F)(F)F)c2C#N)cc1", "inhibition": "inconclusive: 9.87%"}
{"smiles": "Cc1nnc2sc(SCC(=O)Nc3ccc(Cl)cc3)nn2c1=O", "inhibition": "inactive: 0.632%"}
{"smiles": "Cc1cccc(NS(=O)(=O)c2cccc(C(=O)N3CCCC(C(F)(F)F)C3)c2)c1", "note": "(stereo unspecified)", "inhibition": "inconclusive: 19.2%"}
{"smiles": "CN1CCN(C(=O)c2ccccc2NC(=O)CCN2C(=O)c3ccccc3C2=O)CC1", "inhibition": "inactive: 0.871%"}
{"smiles": "CCN(CC)CCn1c2c(c(SCC(=O)Nc3ccccc3Cl)nc1=O)CCCC2", "inhibition": "inconclusive: 15.6%"}
{"smiles": "O=C(Nc1cccc(S(=O)(=O)C(F)F)c1)c1ccc(Cl)c(S(=O)(=O)N2CCOCC2)c1", "inhibition": "inconclusive: 6.64%"}
{"smiles": "CCc1cccc(NC(=O)CCCn2nc(CC)n3c(cc4occc43)c2=O)c1", "inhibition": "inconclusive: 19.1%"}
{"smiles": "COc1ccc(C(CNC(=O)c2oc3c(Cl)cccc3c2C)N2CCCC2)cc1", "note": "(stereo unspecified)", "inhibition": "inactive: 1.84%"}
{"smiles": "CC1CCC(NC(=O)COC(=O)CCC(=O)c2ccc(Cl)s2)CC1", "note": "(stereo unspecified)", "inhibition": "inactive: 6.8%"}
{"smiles": "NC(=O)C1CCN(C(=O)CC(c2ccccc2)c2ccccc2)CC1", "inhibition": "inconclusive: 16.4%"}
{"smiles": "Cc1ccc(Cn2nc(C)c(NC(=O)c3noc4c3CCCCC4)c2C)cc1", "inhibition": "inconclusive: 21.4%"}
{"smiles": "Cc1c(-c2ccco2)[n+](=O)c2c(n1[O-])CCC2", "inhibition": "inconclusive: 35%"}
{"smiles": "CCn1c(-c2ccc(C)cc2)n[nH]c1=S", "inhibition": "inconclusive: 17.5%"}
{"smiles": "COc1cccc(CNC(=O)c2ccc(OC)c(S(=O)(=O)NC3CCCC3)c2)c1", "inhibition": "inactive: -1.04%"}
{"smiles": "C=CCN(CC=C)C(=O)c1cccc(OC2CCN(S(=O)(=O)N(C)C)CC2)c1", "inhibition": "inactive: -1.58%"}
{"smiles": "CCCn1c(CCC(=O)O)ccc1-c1cccs1", "inhibition": "inactive: -14.5%"}
{"smiles": "O=C(N/N=C/c1cc([N+](=O)[O-])ccc1O)C1CCCCC1", "inhibition": "inconclusive: 12%"}
{"smiles": "O=C(Cn1nnc2ccccc2c1=O)NC1CCCCC1", "inhibition": "inactive: -1.87%"}
{"smiles": "COC(=O)c1ccc(COc2ccccc2/C=C(\\C#N)C(=O)Nc2ccc(C)cc2C)cc1", "inhibition": "inconclusive: 20.6%"}
{"smiles": "C=CCOc1c(Br)cc(CNc2ccc(NC(=O)CCC)cc2)cc1OCC", "inhibition": "inconclusive: 19.5%"}
